These results are taken from US20170218015 (published 2017).

This series can be described thus: general procedure: solution-phase peptide synthesis; ethyl-N-dimethylpropylamine carbodiimide / 2-hydroxypyridine-N-oxide. As to conditions: acetate salt.

Regarding H-Inp-(D)Bal-(D)Trp-Phe-Apc-NH2, the step yield (late stage modification step) amounted to 70%. Also, under “whole synthesis, scale of the general procedure 2.35 mmol”, the “final purity (method not given)” value was “greater than 95%”. As for Boc-Inp-(D)Bal-(D)Trp-Phe-Apc(Boc)-NH2, the step yield (coupling step) was 86%.
